Laboratory results taken from the supplement of paper PMC11438910.
This is one part of the list. The signal is at background level for most entries.

Experiments:
Assay in all cases: fluorescence intensity of antibody binding to polysaccharide-coupled beads; higher = stronger binding
[1] = molecular target: pneumococcal polysaccharide Pn10A
[2] = molecular target: pneumococcal polysaccharide Pn10B
[3] = molecular target: pneumococcal polysaccharide Pn10C
[4] = molecular target: pneumococcal polysaccharide Pn10F
[5] = molecular target: pneumococcal polysaccharide Pn11A
[6] = molecular target: pneumococcal polysaccharide Pn11B
[7] = molecular target: pneumococcal polysaccharide Pn11C
[8] = molecular target: pneumococcal polysaccharide Pn11D
[9] = molecular target: pneumococcal polysaccharide Pn11F
[10] = molecular target: pneumococcal polysaccharide Pn12A
[11] = molecular target: pneumococcal polysaccharide Pn12B
[12] = molecular target: pneumococcal polysaccharide Pn12F
[13] = molecular target: pneumococcal polysaccharide Pn13
[14] = molecular target: pneumococcal polysaccharide Pn14
[15] = molecular target: pneumococcal polysaccharide Pn15A
[16] = molecular target: pneumococcal polysaccharide Pn15B
[17] = molecular target: pneumococcal polysaccharide Pn15C
[18] = molecular target: pneumococcal polysaccharide Pn15F
[19] = molecular target: pneumococcal polysaccharide Pn16A
[20] = molecular target: pneumococcal polysaccharide Pn16F
[21] = molecular target: pneumococcal polysaccharide Pn17A
[22] = molecular target: pneumococcal polysaccharide Pn17F
[23] = molecular target: pneumococcal polysaccharide Pn18A
[24] = molecular target: pneumococcal polysaccharide Pn18B
[25] = antibody concentration 2337.65 ng/mL
[26] = antibody concentration 12500 ng/mL
[27] = antibody concentration 0.1 ng/mL
[28] = antibody concentration 0.534724 ng/mL
[29] = antibody concentration 2.8593 ng/mL
[30] = antibody concentration 15.2894 ng/mL
[31] = antibody concentration 81.7561 ng/mL
[32] = antibody concentration 437.17 ng/mL

B1: 4-99.3 (protein)
chain 1: QVQLQESGPGLVKPSETLSLTCAVSGYSISSGYYWGWIRQPPGKGLEYIGYISGSWGKSYYKPSLKSRVTISKDTSKNQFSLTLSSVTAADTAVYYCARRLEYVGFDVWGPGVLVTVSS
chain 2: QAAPTQPPSVSGSPGQSVTISCTGTSSDIGYYNAVSWYQQHPGKAPKLMIYEVSKRPSGVSDRFSGSKSGNTASLTISGLQAEDEADYYCSSYAGSNTYIFGSGTRLTVL
B1 showed a fluorescence intensity [1, 25] of 29.8 MFI, a fluorescence intensity [1, 26] of 79.5 MFI and a fluorescence intensity [2, 27] of 24.2 MFI. It also gave a fluorescence intensity [2, 28] of 23 MFI, a fluorescence intensity [2, 29] of 23.8 MFI and a fluorescence intensity [2, 30] of 22 MFI. It also gave a fluorescence intensity [2, 31] of 22.8 MFI, a fluorescence intensity [2, 32] of 25.5 MFI and a fluorescence intensity [2, 25] of 26 MFI. For the same binder, the fluorescence intensity [2, 26] was 47.8 MFI, the fluorescence intensity [3, 27] was 15.5 MFI and the fluorescence intensity [3, 28] was 16.5 MFI. For the same binder, the fluorescence intensity [3, 29] was 15.5 MFI, the fluorescence intensity [3, 30] was 15.5 MFI and the fluorescence intensity [3, 31] was 17.2 MFI. For the same binder, the fluorescence intensity [3, 32] was 15.5 MFI, the fluorescence intensity [3, 25] was 20 MFI and the fluorescence intensity [3, 26] was 35.5 MFI. It also gave a fluorescence intensity [4, 27] of 20 MFI, a fluorescence intensity [4, 28] of 19 MFI and a fluorescence intensity [4, 29] of 20.5 MFI. It also gave a fluorescence intensity [4, 30] of 19.5 MFI, a fluorescence intensity [4, 31] of 19 MFI and a fluorescence intensity [4, 32] of 18.5 MFI. It also gave a fluorescence intensity [4, 25] of 21.5 MFI, a fluorescence intensity [4, 26] of 28.2 MFI and a fluorescence intensity [5, 27] of 27 MFI. It also gave a fluorescence intensity [5, 28] of 29.2 MFI, a fluorescence intensity [5, 29] of 29.8 MFI and a fluorescence intensity [5, 30] of 27.5 MFI. For the same binder, the fluorescence intensity [5, 31] was 29.8 MFI, the fluorescence intensity [5, 32] was 31.5 MFI and the fluorescence intensity [5, 25] was 37.8 MFI. It also gave a fluorescence intensity [5, 26] of 72.8 MFI, a fluorescence intensity [6, 27] of 22.5 MFI and a fluorescence intensity [6, 28] of 26 MFI. The fluorescence intensity [6, 29] was 25.5 MFI, the fluorescence intensity [6, 30] was 25 MFI and the fluorescence intensity [6, 31] was 25.2 MFI. For the same binder, the fluorescence intensity [6, 32] was 28.5 MFI, the fluorescence intensity [6, 25] was 35.8 MFI and the fluorescence intensity [6, 26] was 41.8 MFI. The fluorescence intensity [7, 27] was 23.5 MFI, the fluorescence intensity [7, 28] was 19.5 MFI and the fluorescence intensity [7, 29] was 21.5 MFI. For the same binder, the fluorescence intensity [7, 30] was 21.5 MFI, the fluorescence intensity [7, 31] was 21.5 MFI and the fluorescence intensity [7, 32] was 24.5 MFI. For the same binder, the fluorescence intensity [7, 25] was 63 MFI, the fluorescence intensity [7, 26] was 440 MFI and the fluorescence intensity [8, 27] was 23 MFI. The fluorescence intensity [8, 28] was 21.5 MFI, the fluorescence intensity [8, 29] was 22 MFI and the fluorescence intensity [8, 30] was 23 MFI. It also gave a fluorescence intensity [8, 31] of 22 MFI, a fluorescence intensity [8, 32] of 23.5 MFI and a fluorescence intensity [8, 25] of 42.2 MFI. For the same binder, the fluorescence intensity [8, 26] was 193 MFI, the fluorescence intensity [9, 27] was 14.2 MFI and the fluorescence intensity [9, 28] was 13.5 MFI. It also gave a fluorescence intensity [9, 29] of 12.5 MFI, a fluorescence intensity [9, 30] of 14.5 MFI and a fluorescence intensity [9, 31] of 13.8 MFI. For the same binder, the fluorescence intensity [9, 32] was 16 MFI, the fluorescence intensity [9, 25] was 18.5 MFI and the fluorescence intensity [9, 26] was 35.5 MFI. It also gave a fluorescence intensity [10, 27] of 15 MFI, a fluorescence intensity [10, 28] of 14.5 MFI and a fluorescence intensity [10, 29] of 15 MFI. For the same binder, the fluorescence intensity [10, 30] was 14.5 MFI, the fluorescence intensity [10, 31] was 14.5 MFI and the fluorescence intensity [10, 32] was 17.5 MFI. It also gave a fluorescence intensity [10, 25] of 23.5 MFI, a fluorescence intensity [10, 26] of 61 MFI and a fluorescence intensity [11, 27] of 15 MFI. The fluorescence intensity [11, 28] was 15 MFI, the fluorescence intensity [11, 29] was 15.5 MFI and the fluorescence intensity [11, 30] was 16 MFI. For the same binder, the fluorescence intensity [11, 31] was 14.5 MFI, the fluorescence intensity [11, 32] was 16 MFI and the fluorescence intensity [11, 25] was 24 MFI. For the same binder, the fluorescence intensity [11, 26] was 66.5 MFI, the fluorescence intensity [12, 27] was 16.5 MFI and the fluorescence intensity [12, 28] was 18.2 MFI. For the same binder, the fluorescence intensity [12, 29] was 17.5 MFI, the fluorescence intensity [12, 30] was 18 MFI and the fluorescence intensity [12, 31] was 19.2 MFI. The fluorescence intensity [12, 32] was 20 MFI, the fluorescence intensity [12, 25] was 25.5 MFI and the fluorescence intensity [12, 26] was 112 MFI. The fluorescence intensity [13, 27] was 19 MFI, the fluorescence intensity [13, 28] was 18 MFI and the fluorescence intensity [13, 29] was 17 MFI. The fluorescence intensity [13, 30] was 18.5 MFI, the fluorescence intensity [13, 31] was 18.5 MFI and the fluorescence intensity [13, 32] was 18.5 MFI. For the same binder, the fluorescence intensity [13, 25] was 25 MFI, the fluorescence intensity [13, 26] was 69.8 MFI and the fluorescence intensity [14, 27] was 13 MFI. The fluorescence intensity [14, 28] was 14.5 MFI, the fluorescence intensity [14, 29] was 13.5 MFI and the fluorescence intensity [14, 30] was 13.5 MFI. It also gave a fluorescence intensity [14, 31] of 16.5 MFI, a fluorescence intensity [14, 32] of 20.5 MFI and a fluorescence intensity [14, 25] of 40.5 MFI. It also gave a fluorescence intensity [14, 26] of 390 MFI, a fluorescence intensity [15, 27] of 12 MFI and a fluorescence intensity [15, 28] of 11.8 MFI. The fluorescence intensity [15, 29] was 12 MFI, the fluorescence intensity [15, 30] was 13.2 MFI and the fluorescence intensity [15, 31] was 13.5 MFI. It also gave a fluorescence intensity [15, 32] of 12 MFI, a fluorescence intensity [15, 25] of 15 MFI and a fluorescence intensity [15, 26] of 23.2 MFI. It also gave a fluorescence intensity [16, 27] of 17.5 MFI, a fluorescence intensity [16, 28] of 17 MFI and a fluorescence intensity [16, 29] of 18 MFI. It also gave a fluorescence intensity [16, 30] of 18.5 MFI, a fluorescence intensity [16, 31] of 20 MFI and a fluorescence intensity [16, 32] of 22.5 MFI. For the same binder, the fluorescence intensity [16, 25] was 23 MFI, the fluorescence intensity [16, 26] was 45.2 MFI and the fluorescence intensity [17, 27] was 15 MFI. It also gave a fluorescence intensity [17, 28] of 17 MFI, a fluorescence intensity [17, 29] of 17 MFI and a fluorescence intensity [17, 30] of 16 MFI. For the same binder, the fluorescence intensity [17, 31] was 14.5 MFI, the fluorescence intensity [17, 32] was 20.2 MFI and the fluorescence intensity [17, 25] was 20 MFI. It also gave a fluorescence intensity [17, 26] of 33 MFI, a fluorescence intensity [18, 27] of 18.8 MFI and a fluorescence intensity [18, 28] of 17 MFI. It also gave a fluorescence intensity [18, 29] of 17 MFI, a fluorescence intensity [18, 30] of 16.5 MFI and a fluorescence intensity [18, 31] of 16.5 MFI. The fluorescence intensity [18, 32] was 18.2 MFI, the fluorescence intensity [18, 25] was 24 MFI and the fluorescence intensity [18, 26] was 46 MFI. It also gave a fluorescence intensity [19, 27] of 15.5 MFI, a fluorescence intensity [19, 28] of 12 MFI and a fluorescence intensity [19, 29] of 13.8 MFI. The fluorescence intensity [19, 30] was 13.5 MFI, the fluorescence intensity [19, 31] was 14.5 MFI and the fluorescence intensity [19, 32] was 17 MFI. It also gave a fluorescence intensity [19, 25] of 19.2 MFI, a fluorescence intensity [19, 26] of 39.5 MFI and a fluorescence intensity [20, 27] of 24.5 MFI. It also gave a fluorescence intensity [20, 28] of 22.5 MFI, a fluorescence intensity [20, 29] of 22.5 MFI and a fluorescence intensity [20, 30] of 23 MFI. For the same binder, the fluorescence intensity [20, 31] was 23 MFI, the fluorescence intensity [20, 32] was 25 MFI and the fluorescence intensity [20, 25] was 33.2 MFI. It also gave a fluorescence intensity [20, 26] of 53.5 MFI, a fluorescence intensity [21, 27] of 21 MFI and a fluorescence intensity [21, 28] of 19.8 MFI. It also gave a fluorescence intensity [21, 29] of 20 MFI, a fluorescence intensity [21, 30] of 19.5 MFI and a fluorescence intensity [21, 31] of 20.8 MFI. The fluorescence intensity [21, 32] was 21 MFI, the fluorescence intensity [21, 25] was 23 MFI and the fluorescence intensity [21, 26] was 34.2 MFI. For the same binder, the fluorescence intensity [22, 27] was 24.5 MFI, the fluorescence intensity [22, 28] was 24.5 MFI and the fluorescence intensity [22, 29] was 23.5 MFI. The fluorescence intensity [22, 30] was 25.5 MFI, the fluorescence intensity [22, 31] was 22 MFI and the fluorescence intensity [22, 32] was 25.5 MFI. The fluorescence intensity [22, 25] was 28 MFI, the fluorescence intensity [22, 26] was 37.8 MFI and the fluorescence intensity [23, 27] was 24 MFI. For the same binder, the fluorescence intensity [23, 28] was 22 MFI, the fluorescence intensity [23, 29] was 22.5 MFI and the fluorescence intensity [23, 30] was 23.5 MFI. It also gave a fluorescence intensity [23, 31] of 23 MFI, a fluorescence intensity [23, 32] of 23.8 MFI and a fluorescence intensity [23, 25] of 26.5 MFI. It also gave a fluorescence intensity [23, 26] of 42.5 MFI, a fluorescence intensity [24, 27] of 29.5 MFI and a fluorescence intensity [24, 28] of 29.5 MFI.
